Patent publication US9816066B2, “Method for delivery of small molecules and proteins across the cell wall of algae using molecular transporters” (priority 2012, dated 2017)
At least one structure is not confirmed: it was looked up by name or label, or the drawing left a doubt.

Test system: wild-type C. reinhardtii cc-124
Test: Flow cytometry uptake in wild-type C. reinhardtii
Format: cell-based, Chlamydomonas reinhardtii
Settings: wild-type cc-124; 12.5, 25, 50 μM; 5 min

O=C1OC2(c3ccc(O)cc3Oc3cc(O)ccc32)c2ccccc21 [Fl, fluorescein]
uptake (mean fluorescence from flow cytometry): no uptake
